From PubChem BioAssay record AID1053133 (Broad Institute, 2014).

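Vaccinia-infected cells with a two-color viral stage reporter; Venus fluorescence read on a plate reader; the cell line is not named here; timing not stated here.
The test concentration is not given here.
Percent change in Venus reporter signal; lower (more negative) values mean stronger inhibition of that viral stage.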

Values are in %.
The controls that fix the scale are not given here.
Common to all entries: measured here: Venus reporter, other viral stage.
Part of the compounds only, not a random draw; the main read-out is not listed here.

* C[C@H]1CN([C@@H](C)CO)S(=O)(=O)c2ccc(C#Cc3ccccc3F)cc2O[C@@H]1CN(C)C(=O)Cc1ccncc1 : activity change (Venus) -32.94%
* C[C@H]1CN([C@@H](C)CO)C(=O)c2cccc(NC(=O)CCCCCC(=O)Nc3ccccc3N)c2O[C@@H]1CN(C)CC1CC1 : activity change (Venus) -79.91%
* COc1ccccc1C#Cc1ccc([C@@H]2[C@@H](CO)N3CCCCN(C(=O)C4CCCC4)C[C@H]23)cc1 : activity change (Venus) -49.39%
* COc1ccc(CN(C)C[C@@H]2OCCCC[C@@H](C)Oc3ccc(NC(=O)Nc4ccc5c(c4)OCO5)cc3C(=O)N([C@H](C)CO)C[C@H]2C)cc1 : activity change (Venus) -47.06%
* C[C@@H]1CN([C@@H](C)CO)C(=O)Cc2cc(NC(=O)NC3CCCCC3)ccc2O[C@H]1CN(C)CC1CCCCC1 : activity change (Venus) -43.25%
* COc1ccc(C#Cc2ccc3c(c2)O[C@@H](CN(C)C(=O)NC2CCCCC2)[C@@H](C)CN([C@@H](C)CO)S3(=O)=O)cc1 : activity change (Venus) -46.51%
* COc1ccc(NC(=O)N(C)C[C@@H]2Oc3cc(-c4ccc(C)cc4)ccc3S(=O)(=O)N([C@H](C)CO)C[C@H]2C)cc1 : activity change (Venus) -49.8%
* COc1ccc(CN(C)C[C@H]2OCCCC[C@@H](C)Oc3ccc(NS(=O)(=O)c4ccc(C)cc4)cc3C(=O)N([C@@H](C)CO)C[C@H]2C)cc1 : activity change (Venus) -43.26%
* COc1cccc(-c2ccc3c(c2)[C@@H]2[C@@H](CCN2C(=O)c2ccc4c(c2)OCO4)[C@H](CO)N3C)c1 : activity change (Venus) -51.47%
* C[C@H]1CCCCO[C@@H](CN(C)Cc2ccccc2)[C@@H](C)CN([C@@H](C)CO)C(=O)c2cc(NC(=O)NC3CCCCC3)ccc2O1 : activity change (Venus) -64.07%
* OC[C@H]1[C@@H](c2ccc(C#Cc3ccccc3)cc2)[C@@H]2CN(CC3CCOCC3)CCCCN12 : activity change (Venus) -57.84%
* C[C@@H]1CN([C@H](C)CO)S(=O)(=O)c2ccc(-c3cccc(F)c3)cc2O[C@@H]1CN(C)C(=O)c1cccc(F)c1 : activity change (Venus) -31.23%
* C[C@@H]1CCCCO[C@@H](CN(C)Cc2ccc(Cl)c(Cl)c2)[C@H](C)CN([C@H](C)CO)C(=O)c2cc(NS(=O)(=O)c3ccc(F)cc3)ccc2O1 : activity change (Venus) -50.14%
* C[C@H](CO)N1C[C@H](C)[C@H](CN(C)S(=O)(=O)c2cccc(F)c2)Oc2cc(Br)ccc2S1(=O)=O : activity change (Venus) -35.73%
* C[C@@H]1CN([C@@H](C)CO)C(=O)Cc2cc(NC(=O)Nc3ccc4c(c3)OCO4)ccc2O[C@H]1CN(C)Cc1ccc(C(F)(F)F)cc1 : activity change (Venus) -35.81%
* CC(C)CC#Cc1ccc2c(c1)O[C@@H](CN(C)Cc1cccc(F)c1)[C@H](C)CN([C@H](C)CO)S2(=O)=O : activity change (Venus) -29.66%
* O=C(C[C@@H]1CC[C@@H]2[C@H](COC[C@@H](O)CN2C(=O)Nc2ccc(Cl)c(Cl)c2)O1)NCc1ccc(F)cc1 : activity change (Venus) -54.49%
* CCC(=O)N(C)C[C@H]1Oc2cc(-c3ccc(C)cc3)ccc2S(=O)(=O)N([C@@H](C)CO)C[C@H]1C : activity change (Venus) -28.73%
* COc1ccc(CN(C)C[C@H]2OCCCC[C@@H](C)Oc3ccc(NC(=O)Nc4ccc(F)cc4)cc3C(=O)N([C@H](C)CO)C[C@H]2C)cc1 : activity change (Venus) -59.75%
* COc1cccc(-c2ccc3c(c2)O[C@@H](CN(C)C(=O)C2CCCCC2)[C@@H](C)CN([C@@H](C)CO)S3(=O)=O)c1 : activity change (Venus) -70.98%
* C[C@@H]1CN([C@H](C)CO)C(=O)c2cccc(NC(=O)c3ccc(-c4nccs4)cc3)c2O[C@@H]1CN(C)Cc1ccc(Cl)c(Cl)c1 : activity change (Venus) -45.03%